In PubChem BioAssay AID206 (DTP/NCI, 2004) one finds T/C and survivor count data, which are given here for nine compounds.

The list shows only some results of the screen, not a fair sample: it covers a few groups of compounds. Other doses and runs of a compound may be missing. T/C: endpoint of the treated group in % of that of the vehicle group. Schedules are NCI's codes, taken here to give the interval after Q, in days (D) or hours (H), and the number of doses after X. Some T/C values carry the count of animals alive at the toxicity check; without a count or a note in brackets, all were alive then. Some complexes appear as separate parts, the way the source draws them; their charges need not add up. Some doses were run more than once; the results are listed from low to high. Some entries give survivors of the animals treated and no T/C: the source files T/C as zero there, which appears to mark a toxic dose or a test without result, not a measured value. Counts of survivors are from the toxicity check, whose day is not always given; animals may have died later.

The test system of this assay is nude mice, HT29 intrarenal xenograft, tumor weight T/C. Description: NCI In Vivo Anticancer Drug Screen. Data for tumor model HT29;CX-1 Human Adenocarcinoma (MER+) (intrarenal inoculation) in NU/NU Swiss (nude) mice. As to conditions: T/C endpoint: mean tumor weight change, higher T/C = larger tumour. As for the experimental part:
The antitumor activity of compounds was measured in mice bearing transplantable tumors. Survival or tumor size were measured and the results are expressed as the measurement made in the treated group (T) divided by the measurement made in the vehicle treated control group (C). The tumor model used in this assay is HT29;CX-1 Human Adenocarcinoma (MER+) (intrarenal inoculation) in NU/NU Swiss (nude) mice

[1] abbreviates: dose: 300.0 mg/kg/injection, schedule: Q04DX004 (sc), vehicle: Klucel (hydroxypropylcellulose) (HPC), evaluated on day 15.
[2] abbreviates: dose: 600.0 mg/kg/injection, schedule: Q04DX004 (sc), vehicle: Klucel (hydroxypropylcellulose) (HPC), evaluated on day 15.
Where [3] appears, read: dose: 50.0 mg/kg/injection, schedule: Q01DX010 (sc), vehicle: saline with Tween-80, evaluated on day 20.
[4] abbreviates: dose: 100.0 mg/kg/injection, schedule: Q01DX010 (sc), vehicle: saline with Tween-80, evaluated on day 20.
[5] abbreviates: dose: 400.0 mg/kg/injection, schedule: Q01DX010 (sc), vehicle: saline with Tween-80.

For `Cc1ccc(Sc2ccc([N+](=O)[O-])cc2[N+](=O)[O-])c([N+](=O)[O-])c1`, the T/C reads like this: (dose: 300.0 mg/kg/injection, schedule: Q04DX004 (sc), vehicle: suspension in saline, evaluated on day 15) 113 % of control; (dose: 600.0 mg/kg/injection, schedule: Q04DX004 (sc), vehicle: suspension in saline, evaluated on day 15) 121 % of control; (dose: 1200.0 mg/kg/injection, schedule: Q04DX004 (sc), vehicle: suspension in saline, evaluated on day 15) 82 % of control; (dose: 2400.0 mg/kg/injection, schedule: Q04DX004 (sc), vehicle: suspension in saline, evaluated on day 15) 96 % of control.
As to `ClP1(Cl)=NP(Cl)(Cl)=NP(Cl)(Cl)=NP(Cl)(Cl)=N1`, the T/C was 97 % of control under setting [1]; 131 % of control under setting [2]; 116 % of control (dose: 1200.0 mg/kg/injection, schedule: Q04DX004 (sc), vehicle: Klucel (hydroxypropylcellulose) (HPC), evaluated on day 15); 87 % of control (dose: 2400.0 mg/kg/injection, schedule: Q04DX004 (sc), vehicle: Klucel (hydroxypropylcellulose) (HPC), evaluated on day 15).
As for `CCCNC(=O)c1ccc(N(CCCl)CCCl)cc1`, the T/C (dose: 75.0 mg/kg/injection, schedule: Q04DX004 (sc), vehicle: Klucel (hydroxypropylcellulose) (HPC), evaluated on day 15) is 76 % of control; the T/C (dose: 150.0 mg/kg/injection, schedule: Q04DX004 (sc), vehicle: Klucel (hydroxypropylcellulose) (HPC), evaluated on day 15) was 51 % of control; the T/C under setting [1] is 67 % of control [5 of 6 alive on day 15]; the T/C under setting [2] is 72 % of control [5 of 6 alive on day 15].
For the compound `[Au].[C-]#N.[C-]#N`, the T/C was 2, 75, 132 % of control (dose: 5.0 mg/kg/injection, schedule: Q04DX004 (sc), vehicle: saline, evaluated on day 15); 29, 69, 120 % of control (dose: 10.0 mg/kg/injection, schedule: Q04DX004 (sc), vehicle: saline, evaluated on day 15); 7 [5 of 6 alive on day 15] and 47 % of control [5 of 6 alive on day 15] (dose: 20.0 mg/kg/injection, schedule: Q04DX004 (sc), vehicle: saline, evaluated on day 15). The survivor count is 2 of 6 on day 15 (dose: 20.0 mg/kg/injection, schedule: Q04DX004 (sc), vehicle: saline) and 0 of 6 on day 15 (dose: 40.0 mg/kg/injection, schedule: Q04DX004 (sc), vehicle: saline).
`NC(=O)c1[nH]cnc1/N=N\N(CCCl)CCCl`: the T/C reads like this: under setting [3], 100 % of control; under setting [4], 128 % of control. Further, the survivor count (dose: 200.0 mg/kg/injection, schedule: Q01DX010 (sc), vehicle: saline with Tween-80) is 1 of 3 on day 20 and the survivor count under setting [5] is 0 of 2 on day 20.
For the compound `[Au+].[Au+].c1ccc([PH+](c2ccccc2)c2ccccc2)cc1.c1ccc([PH+](c2ccccc2)c2ccccc2)cc1.n1n[n-]c(-c2nnn[n-]2)n1`, the T/C was 65 % of control under setting [3]; 65 % of control under setting [4]; 65 % of control (dose: 200.0 mg/kg/injection, schedule: Q01DX010 (sc), vehicle: saline with Tween-80, evaluated on day 20). The survivor count under setting [5] was 1 of 3 on day 20.
For the compound `CC(=O)OC(SC(OC(C)=O)C(Cl)(Cl)Cl)C(Cl)(Cl)Cl` (stereo unspecified), the T/C was 144 % of control [2 of 2 alive on day 11] (dose: 100.0 mg/kg/injection, schedule: Q01DX010 (sc), vehicle: Klucel (hydroxypropylcellulose) (HPC), evaluated on day 11); 258 % of control (dose: 200.0 mg/kg/injection, schedule: Q01DX010 (sc), vehicle: Klucel (hydroxypropylcellulose) (HPC), evaluated on day 11); 114 % of control [2 of 2 alive on day 11] (dose: 400.0 mg/kg/injection, schedule: Q01DX010 (sc), vehicle: Klucel (hydroxypropylcellulose) (HPC), evaluated on day 11); 151 % of control (dose: 800.0 mg/kg/injection, schedule: Q01DX010 (sc), vehicle: Klucel (hydroxypropylcellulose) (HPC), evaluated on day 11).
As to `Nc1cc([As]=O)ccc1O` (stereo unspecified), the T/C (dose: 12.5 mg/kg/injection, schedule: Q01DX010 (sc), vehicle: saline with Tween-80, evaluated on day 11) was 88 % of control and the T/C (dose: 50.0 mg/kg/injection, schedule: Q01DX010 (sc), vehicle: saline with Tween-80, evaluated on day 11) was 64 % of control [2 of 2 alive on day 11]. For the same compound, the survivor count (dose: 100.0 mg/kg/injection, schedule: Q01DX010 (sc), vehicle: saline with Tween-80) is reported as 0 of 3 on day 11.
`ClC1CSC1`: the T/C by setting is: (dose: 150.0 mg/kg/injection, schedule: Q04DX004 (sc), vehicle: saline with Tween-80, evaluated on day 15) 142 % of control; (dose: 300.0 mg/kg/injection, schedule: Q04DX004 (sc), vehicle: saline with Tween-80, evaluated on day 15) 136 % of control; (dose: 600.0 mg/kg/injection, schedule: Q04DX004 (sc), vehicle: saline with Tween-80, evaluated on day 15) 170 % of control; (dose: 1200.0 mg/kg/injection, schedule: Q04DX004 (sc), vehicle: saline with Tween-80, evaluated on day 15) 92 % of control.
